PubChem BioAssay AID1159584 – Peter MacCallum Cancer Centre, 2016

Screen: 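Genes that CDH1-null MCF10A cells selectively depend on to survive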 (primary screen)
Cell system: human MCF10A breast epithelial cells, parental and CDH1-null
Reagents: siRNA against human genes
Measurement: 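ATP luminescence (CellTiter-Glo) viability per line relative to mean mock wells over all plates, and the ratio of CDH1-null to parental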
Direction: CDH1-null / parental viability ratio: higher = CDH1-null cells survive relatively better than parental; CDH1-null viability vs mock: higher = more viable CDH1-null cells
Shown is an unselected part of about 18,000 reagents. Further read-outs or replicates are left out here. The record does not give: the amount of reagent, the time to read-out.

{"Gene": "PSMD8", "CDH1-null / parental viability ratio": 1.19, "CDH1-null viability vs mock (fraction of mock)": 0.32}
{"Gene": "ID3", "CDH1-null / parental viability ratio": 0.92, "CDH1-null viability vs mock (fraction of mock)": 1.04}
{"Gene": "FRMD7", "CDH1-null / parental viability ratio": 1.16, "CDH1-null viability vs mock (fraction of mock)": 1.04}
{"Gene": "DDT", "CDH1-null / parental viability ratio": 1.02, "CDH1-null viability vs mock (fraction of mock)": 0.9}
{"Gene": "CERS5", "CDH1-null / parental viability ratio": 0.97, "CDH1-null viability vs mock (fraction of mock)": 0.76}
{"Gene": "ARHGEF4", "CDH1-null / parental viability ratio": 1.42, "CDH1-null viability vs mock (fraction of mock)": 0.51}
{"Gene": "DEFB116", "CDH1-null / parental viability ratio": 0.84, "CDH1-null viability vs mock (fraction of mock)": 0.64}
{"Gene": "LIMK1", "CDH1-null / parental viability ratio": 1.06, "CDH1-null viability vs mock (fraction of mock)": 1.08}
{"Gene": "TENM1", "CDH1-null / parental viability ratio": 1.24, "CDH1-null viability vs mock (fraction of mock)": 1.04}
{"Gene": "ZSCAN10", "CDH1-null / parental viability ratio": 1.07, "CDH1-null viability vs mock (fraction of mock)": 0.58}
{"Gene": "NCR3", "CDH1-null / parental viability ratio": 0.88, "CDH1-null viability vs mock (fraction of mock)": 0.67}
{"Gene": "PHACTR3", "CDH1-null / parental viability ratio": 1.25, "CDH1-null viability vs mock (fraction of mock)": 0.9}
{"Gene": "INCA1", "CDH1-null / parental viability ratio": 0.93, "CDH1-null viability vs mock (fraction of mock)": 0.56}
{"Gene": "DPEP2", "CDH1-null / parental viability ratio": 1.13, "CDH1-null viability vs mock (fraction of mock)": 0.8}
